PubChem BioAssay AID686937, Drosophila RNAi Screening Center, 2013

- Assay: 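Knock-downs that reduce output of a secreted reporter enzyme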 (primary screen)
- Cell system: Drosophila S2 cells expressing secreted horseradish peroxidase
- Reagents: long dsRNA against Drosophila genes
- Time to read-out: about 5.5 days (5 days dsRNA, then 12 h reporter induction)
- Treatment: reporter expression induced after 5 days of dsRNA, read 12 h later; inducer not stated
- Measured: 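Chemiluminescent measurement of peroxidase in the medium 12 h after reporter induction, following 5 days of dsRNA, given as a z-score per plate; higher means more secretion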
- Direction: z-score: higher = more reporter secreted into medium
The screen tested about 23,000 reagents; below is a random part of those that have a named target and a result. 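Reduced-secretion tags in replicate 1 do not always agree with the z-scores; no criterion for assigning the tags was given.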 A plus sign joins genes that one reagent is predicted to hit. Not stated in the record: the amount of reagent.

| Target gene | DRSC id | z-score, replicate 1 | z-score, replicate 2 | z-score, replicate 3 | z-score, replicate 4 | phenotype, replicate 1 |
| --- | --- | --- | --- | --- | --- | --- |
| Hsepi | DRSC04986 | 0.34 | 0.35 | – | – | – |
| CG10418 | DRSC09720 | -0.31 | -0.27 | – | – | – |
| Sod3 | DRSC07324 | 0.3 | 0.36 | – | – | – |
| Vajk3 | DRSC01883 | 0.04 | 0.05 | – | – | – |
| cdm | DRSC16213 | 0.16 | 0.5 | – | – | – |
| CG33627 | DRSC05343 | -0.04 | 0.43 | – | – | – |
| Dnaaf5 | DRSC13032 | -0.64 | 0.22 | – | – | – |
| Yif1 | DRSC15817 | -1.03 | -1.43 | – | – | – |
| Mmp1 | DRSC04493 | 0.33 | 0.07 | – | – | – |
| Sb | DRSC16851 | 0.59 | 0.72 | – | – | – |
| CG10822 | DRSC06005 | 0.2 | 0.3 | – | – | – |
| Mco3 | DRSC15926 | 0.31 | 0.29 | – | – | – |
| vito | DRSC21781 | 0.71 | -0.15 | – | – | – |
| CG15117 | DRSC06539 | 0.44 | 0.33 | – | – | – |
| Ipk2 | DRSC00357 | 0.41 | 0.47 | – | – | – |
| bisc | DRSC04083 | 0.05 | 0.09 | – | – | – |
| CG14230 | DRSC19586 | 0.17 | 0.25 | – | – | – |
| dpr9 | DRSC14534 | 0.31 | 0.32 | – | – | – |
| dpr9 | DRSC14985 | 0.42 | 0.76 | – | – | – |
| dpr9 | DRSC14986 | 0.75 | 0.86 | – | – | – |
| Urm1 | DRSC22941 | -0.44 | -0.2 | – | – | – |
| Nxf3 | DRSC21749 | -0.13 | -0.66 | – | – | – |
| CG7747 | DRSC07038 | 0.26 | 0.46 | – | – | – |
| Cec2 | DRSC21885 | 0.35 | -0.05 | – | – | – |
| inc | DRSC17954 | 0.4 | 0.36 | – | – | – |
| inc | DRSC18512 | 0.4 | 0.25 | 0.05 | 0.3 | – |
| upd3 | DRSC19636 | 0.19 | 0.39 | – | – | – |
| upd3 | DRSC19968 | 0.32 | 0.5 | – | – | – |
| upd3 | DRSC22169 | -0.49 | -0.01 | – | – | – |
| CG43341 | DRSC05055 | 0.93 | – | – | – | – |
| CG17738 | DRSC15257 | 0.35 | 0.78 | – | – | – |
| CG13766 | DRSC02271 | 0.12 | 0.21 | – | – | – |
| CG4069 | DRSC10396 | -0.07 | 0.01 | – | – | – |
| CG33332 | DRSC15504 | 0.5 | -0.37 | – | – | – |
| Cpr66Cb | DRSC10769 | -0.23 | 0.13 | – | – | – |
| Lcp4 | DRSC07458 | 0.18 | 0.17 | – | – | – |
| Ranbp16 | DRSC20160 | 0.4 | 0.44 | – | – | – |
| Acp65Aa | DRSC09663 | 0.2 | 0.34 | – | – | – |
| dbf | DRSC02570 | -0.12 | 0.27 | – | – | – |
| PolZ2 | DRSC12325 | 0.24 | 0.35 | – | – | – |
| Ir68a | DRSC10599 | 0.28 | 0.22 | – | – | – |
| CG15365 | DRSC18038 | -4.51 | -4.47 | – | – | reduced secretion |
| CG5440 | DRSC00685 | 0.02 | -0.08 | – | – | – |
| EloC | DRSC07423 | -1.51 | -1.64 | – | – | reduced secretion |
| CG42402 | DRSC21116 | 0.21 | 0.13 | – | – | – |
| Ir31a | DRSC22358 | -1.11 | 0.18 | – | – | – |
| CG11808 | DRSC06088 | 0.75 | 0.57 | – | – | – |

Targets listed so far whose target name starts with I or i:
| Target gene | DRSC id | z-score, replicate 1 | z-score, replicate 2 | z-score, replicate 3 | z-score, replicate 4 | phenotype, replicate 1 |
| --- | --- | --- | --- | --- | --- | --- |
| Ipk2 | DRSC00357 | 0.41 | 0.47 | – | – | – |
| inc | DRSC17954 | 0.4 | 0.36 | – | – | – |
| inc | DRSC18512 | 0.4 | 0.25 | 0.05 | 0.3 | – |
| Ir68a | DRSC10599 | 0.28 | 0.22 | – | – | – |
| Ir31a | DRSC22358 | -1.11 | 0.18 | – | – | – |

Further records follow.
| Target gene | DRSC id | z-score, replicate 1 | z-score, replicate 2 | z-score, replicate 3 | z-score, replicate 4 | phenotype, replicate 1 |
| --- | --- | --- | --- | --- | --- | --- |
| CG8958 | DRSC20134 | 0.15 | 0.28 | – | – | – |
| CG4820 | DRSC15654 | 0.36 | 0.14 | – | – | – |
| BORCS5 | DRSC19427 | 0.39 | 0.37 | – | – | – |
| CG33017 | DRSC06573 | -0.06 | 0.14 | – | – | – |
| CG33017 | DRSC06574 | 0.31 | 0.19 | – | – | – |
| CG3277 | DRSC00588 | 0.12 | 0.31 | – | – | – |
| pyr | DRSC06319 | 0.36 | 0.2 | 0.31 | 0.3 | – |
| pyr | DRSC22520 | 0.62 | 0.69 | – | – | – |
| Cfp1 | DRSC18128 | -0.82 | -6.3 | – | – | – |
| Cyp4d14 | DRSC18457 | 0.04 | 0.26 | – | – | – |
| Rim | DRSC16224 | 0.33 | 0.22 | – | – | – |
| Rim | DRSC16225 | -3.14 | -0.32 | – | – | reduced secretion |
| Rim | DRSC16226 | 0.34 | 0.41 | – | – | – |
| Rim | DRSC16227 | 0.49 | 0.36 | – | – | – |
| Rim | DRSC22406 | -0.3 | -0.42 | – | – | – |
| CG8245 | DRSC04901 | -0.42 | -0.23 | 0.15 | 0.08 | – |
| CG31323 | DRSC14901 | 0.37 | 0.25 | – | – | – |
| CG3163 | DRSC04341 | 0.26 | 0.17 | – | – | – |
| CG15142 | DRSC02443 | -0.19 | 0.22 | – | – | – |
| CG42367 | DRSC21388 | 0 | -0.12 | – | – | – |
| His3.3A | DRSC03343 | -1.38 | -1.39 | – | – | – |
| CG6665 | DRSC07006 | 0.34 | 0.5 | – | – | – |
| Pen | DRSC03396 | 0.44 | 0.27 | – | – | – |
| PPP4R2r | DRSC18695 | 0.16 | 0.42 | 0.85 | 0.32 | – |
| PPP4R2r | DRSC21503 | -0.07 | -0.35 | – | – | – |
| AstC-R2 | DRSC10051 | 0.38 | 0.46 | – | – | – |
| Drat | DRSC06600 | 0.06 | 0.35 | – | – | – |
| Nf-YB | DRSC02057 | -0.82 | -0.41 | – | – | – |
| CG10814 | DRSC06004 | 0.24 | 0.1 | – | – | – |
| CG15544 | DRSC15082 | 0.21 | 0.18 | – | – | – |
| CG33331 + CG33332 | DRSC22928 | -0.21 | -0.24 | – | – | – |
| Su(z)3 (retired record) | DRSC07558 | -2.5 | -3.11 | – | – | reduced secretion |
| CG11398 | DRSC18625 | 0.29 | 0.27 | – | – | – |
| CG12769 | DRSC06167 | 0.56 | 0.43 | – | – | – |
| CG10737 | DRSC05999 | 0.2 | 0.43 | – | – | – |
